# Paper PMC12578393
# Sequences of proteins named here, by UniProt entry; tags and fusion partners are left off.
# UniProt O35129: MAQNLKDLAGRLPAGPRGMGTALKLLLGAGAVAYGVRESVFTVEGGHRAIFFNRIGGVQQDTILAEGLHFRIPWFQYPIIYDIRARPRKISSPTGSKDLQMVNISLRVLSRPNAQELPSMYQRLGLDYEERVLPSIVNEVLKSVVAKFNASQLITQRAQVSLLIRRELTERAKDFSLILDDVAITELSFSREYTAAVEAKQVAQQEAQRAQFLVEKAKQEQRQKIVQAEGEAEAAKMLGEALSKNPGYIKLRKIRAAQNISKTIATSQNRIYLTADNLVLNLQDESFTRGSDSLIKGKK
# These are yes or no findings as the source states them, for the method shown. In cells and extracts the contact can be indirect. Some entries that bind do so weakly or less than the wild type.
# B1: insulin-like growth factor binding protein 6 (protein, UniProt P47880 26-238)
# chain: ALAGCPGCGAGMQTGCRGGCVEEEDAGSPADGCTEAGGCLRREGQPCGVYSPKCAPGLQCQPRENEEAPLRALLIGQGRCQRARGPSEETTKESKPQGGASRSRDTNHRDRQKNPRTSAAPIRPNPVQDSEMGPCRRHLDSVLQQLQTEVFRGGARGLYVPNCDLRGFYRKQQCRSSQGNRRGPCWCVDPMGQPLPVSPDGQGSTQCSARSSG
# Molecular target: prohibitin-2 (mouse (endogenous in MLE-12 and MODE-K)) (UniProt O35129)
# Assay: co-IP; co-IP of IGFBP6 and PHB2 in MLE-12 and MODE-K cells; which protein was precipitated is not told in the main text
binder,measurement,value
B1,binding,binds
